# Measured values published in article doi:10.1101/2021.11.05.463553.
# Chains of the proteins cited; added tags and fusions are not shown.
# UniProt Q9UM11, whole entry: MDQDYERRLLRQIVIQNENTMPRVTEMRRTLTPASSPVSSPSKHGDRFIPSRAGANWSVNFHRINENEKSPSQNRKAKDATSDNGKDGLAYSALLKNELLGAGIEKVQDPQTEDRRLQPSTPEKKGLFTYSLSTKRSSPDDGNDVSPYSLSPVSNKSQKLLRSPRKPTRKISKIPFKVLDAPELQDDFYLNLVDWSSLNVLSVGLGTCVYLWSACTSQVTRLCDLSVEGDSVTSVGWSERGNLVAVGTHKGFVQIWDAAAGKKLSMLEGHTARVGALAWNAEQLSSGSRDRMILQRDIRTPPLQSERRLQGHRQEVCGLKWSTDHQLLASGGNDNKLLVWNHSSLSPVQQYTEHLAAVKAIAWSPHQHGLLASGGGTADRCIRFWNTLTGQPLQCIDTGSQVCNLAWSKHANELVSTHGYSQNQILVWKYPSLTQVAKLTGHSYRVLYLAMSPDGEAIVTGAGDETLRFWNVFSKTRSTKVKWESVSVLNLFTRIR
# Read-outs that look alike come from different tables or passages of the source. No constants are given. Whether binding was seen depends on the method and setting. Binding seen in cells or lysates may run through a third protein. Some binding calls cover weakened binding; strength is not graded here. For some assays here: Tags and fused reporters may be left off the sequences shown.
# How the values were obtained:
# Test in all cases: co-IP
# [1] = target: Cdh1, endogenous in CaSki cells (human (endogenous in CaSki)) (UniProt Q9UM11)
# [2] = target: HPV16 E7, endogenous in CaSki cells (human papillomavirus 16 (integrated in CaSki)) (UniProt P03129)
# EGFP-Cdh1 = EGFP-Cdh1 (UniProt Q9UM11)
# Flag-Cdh1 (wild type) [3] = target: Flag-Cdh1 (wild type) (UniProt Q9UM11)
# Flag-Cdh1 (wild type) [4] = target: Flag-Cdh1 (wild type) (UniProt Q9UM11); remark: listed apart in the source
# [5] = target: Myc-E7 p24Gly (human papillomavirus 16 (HPV16)) (UniProt P03129)
# [6] = target: Myc-E7 (full length, wild type HPV16 E7) (human papillomavirus 16 (HPV16)) (UniProt P03129)
molecule,measurement,setting,value
"HPV16 E7, endogenous in CaSki cells (from UniProt P03129 1-98)",binding,[1],binds
"Cdh1, endogenous in CaSki cells (from UniProt Q9UM11 1-496)",binding,[2],binds
DsRED-E7 (38-98aa) (from UniProt P03129 38-98) (domain or fragment),binding,EGFP-Cdh1,binds
DsRED-E7 (1-15aa) (from UniProt P03129 1-15) (domain or fragment),binding,EGFP-Cdh1,binds weakly
DsRED-E7 WT (full length HPV16 E7) (from UniProt P03129 1-98),binding,EGFP-Cdh1,binds
"Myc-E7 (full length, wild type HPV16 E7) (from UniProt P03129 1-98)",binding,Flag-Cdh1 (wild type) [3],binds
same,binding,Flag-Cdh1 (wild type) [4],binds
DsRED-E7 (16-37aa) (from UniProt P03129 16-37) (domain or fragment),binding,EGFP-Cdh1,binds weakly
Flag-Cdh1 (wild type) (from UniProt Q9UM11-2 1-493),binding,[5],no binding
same,binding,[6],binds
"EGFP-FoxM1 (protein, UniProt Q08050 1-763) MKTSPRRPLILKRRRLPLPVQNAPSETSEEEPKRSPAQQESNQAEASKEVAESNSCKFPAGIKIINHPTMPNTQVVAIPNNANIHSIITALTAKGKESGSSGPNKFILISCGGAPTQPPGLRPQTQTSYDAKRTEVTLETLGPKPAARDVNLPRPPGALCEQKRETCADGEAAGCTINNSLSNIQWLRKMSSDGLGSRSIKQEMEEKENCHLEQRQVKVEEPSRPSASWQNSVSERPPYSYMAMIQFAINSTERKRMTLKDIYTWIEDHFPYFKHIAKPGWKNSIRHNLSLHDMFVRETSANGKVSFWTIHPSANRYLTLDQVFKPLDPGSPQLPEHLESQQKRPNPELRRNMTIKTELPLGARRKMKPLLPRVSSYLVPIQFPVNQSLVLQPSVKVPLPLAASLMSSELARHSKRVRIAPKVLLAEEGIAPLSSAGPGKEEKLLFGEGFSPLLPVQTIKEEEIQPGEEMPHLARPIKVESPPLEEWPSPAPSFKEESSHSWEDSSQSPTPRPKKSYSGLRSPTRCVSEMLVIQHRERRERSRSRRKQHLLPPCVDEPELLFSEGPSTSRWAAELPFPADSSDPASQLSYSQEVGGPFKTPIKETLPISSTPSKSVLPRTPESWRLTPPAKVGGLDFSPVQTSQGASDPLPDPLGLMDLSTTPLQSAPPLESPQRLLSSEPLDLISVPFGNSSPSDIDVPKPGSPEPQVSGLAANRSLTEGLVLDTMNDSLSKILLDISFPGLDEDPLGPDNINWSQFIPELQ",binding,Flag-Cdh1 (wild type) [4],binds
